Results reported in the supplement of paper PMC4371806.
The full ranking holds about 2,300 compounds; the median of “plate-normalized OD600 growth (mean of duplicates)” is about 0.29, and the lowest 2% start at about 0.22. Some of the results follow.

Tested on: Escherichia coli BW25113
Assay: plate-normalized OD600 growth (mean of duplicates) (OD600 (normalized)); higher = more growth (less inhibition)
Details: 10 µM
Procedure: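 E. coli BW25113 in LB (100 µl, 96-well, no shaking) was exposed to 10 µM of each compound from a ~30,000-member library and grown at 37°C for 24 h or 15°C for 48 h, in duplicate. Growth was read as OD600 and the duplicate ODs were normalized across screening plates to correct plate-to-plate variation. Hits were >3σ below the mean OD600 at 15°C and <2σ below the mean at 37°C.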

Structure (SMILES) | plate-normalized OD600 growth (temperature: 15°C, 48 h) | plate-normalized OD600 growth (temperature: 37°C, 24 h)
COc1ccc(OC)c(C(=O)c2cc(OC)c(OC)c(OC)c2)c1 | 0.26 | 0.656
CCOc1cc(/C=N/NC(=O)CNC(=O)C(c2ccccc2)c2ccccc2)ccc1OC(=O)c1ccccc1 | 0.245 | 0.635
COc1cc(S(=O)(=O)N2CCN(c3c(C)cccc3C)CC2)c(OC)cc1Cl | 0.253 | 0.617
CCOC(=O)c1ccc(N2C(=O)CC(N3CCN(Cc4ccc5c(c4)OCO5)CC3)C2=O)cc1 (stereo unspecified) | 0.242 | 0.617
CC(=O)Nc1cc(-c2ccc(Br)cc2)nn1Cc1ccc(Cl)cc1 | 0.254 | 0.625
N#Cc1c(C2CCCCC2)nc(Sc2ccc(C(F)(F)F)cc2[N+](=O)[O-])[nH]c1=O | 0.258 | 0.619
Cc1c(C(=O)NN)nn(-c2ccccc2)c(=O)c1C#N | 0.242 | 0.624
CN(C)c1ccc(/C=N/NC(=O)c2nnn(-c3nonc3N)c2CSc2nc3ccccc3s2)cc1 | 0.249 | 0.613
Cc1ccc2cc(NC(=O)c3ccco3)ccc2n1 | 0.235 | 0.601
CC1(C)Cc2ccccc2C(CSc2nnc3c(n2)[nH]c2ccccc23)=N1 | 0.245 | 0.608
FC(F)(F)c1ccc(Cl)c(NC(=S)NN=C2CCCCCC2)c1 | 0.245 | 0.624
C/C(Cn1cnc([N+](=O)[O-])n1)=N\NC(=O)c1cccc(C)c1 | 0.249 | 0.621
COC(=O)c1cc(Cl)c(NC(=O)c2ccco2)cc1OC | 0.252 | 0.595
COc1ccc(Nc2nc(Cl)nc(NCCC3=CCCCC3)n2)cc1 | 0.257 | 0.602
NC(N)=NC(N)=Nc1ccc2c(c1)OCCO2 | 0.252 | 0.624
COc1ccc(N=Cc2ccc(-c3ccc(F)cc3)o2)cc1 | 0.244 | 0.616
Cc1ccc(NC(=O)C2CCC(=O)N2C(=O)OCc2ccccc2)cc1 (stereo unspecified) | 0.243 | 0.611
O=C1/C(=C\c2ccc(Cl)cc2Cl)N=C(c2ccccc2)N1C1CC1 | 0.241 | 0.577
N#CC1COc2ccccc2O1 (stereo unspecified) | 0.259 | 0.649
O=C1OC2COC(=O)C2C=C1NC(=O)c1ccc(Cl)cc1 (stereo unspecified) | 0.25 | 0.613
O=C1C(Cl)=C(Oc2cc(Cl)c(Cl)cc2Cl)C(=O)c2ccccc21 | 0.211 | 0.613
CCOC(=O)/C(C#N)=C/Nc1ccc2c(c1)OCO2 | 0.264 | 0.649
CCCN(CCNN1C(=O)/C(=C/c2ccc(O)cc2)N=C1c1ccccc1)c1c(Cl)cc(C(F)(F)F)cc1Cl | 0.238 | 0.62
O=C(NCCSCc1ccco1)c1ccc(Cl)cc1 | 0.25 | 0.605
CCOC(=O)c1ccc2nc(NC(=O)CSc3nc(C)cc(C)n3)sc2c1 | 0.254 | 0.613

A draw from above in order of SMILES length, smallest number first:
Structure (SMILES) | plate-normalized OD600 growth (temperature: 15°C, 48 h) | plate-normalized OD600 growth (temperature: 37°C, 24 h)
COc1ccc(N=Cc2ccc(-c3ccc(F)cc3)o2)cc1 | 0.244 | 0.616
O=C1OC2COC(=O)C2C=C1NC(=O)c1ccc(Cl)cc1 (stereo unspecified) | 0.25 | 0.613
CC(=O)Nc1cc(-c2ccc(Br)cc2)nn1Cc1ccc(Cl)cc1 | 0.254 | 0.625

Next entries follow.

Structure (SMILES) | plate-normalized OD600 growth (temperature: 15°C, 48 h) | plate-normalized OD600 growth (temperature: 37°C, 24 h)
Cc1ccc(Cl)cc1NC(=S)N(CCC#N)/N=C\c1ccc2c(c1)OCO2 | 0.227 | 0.611
CCn1nc(C)cc1C(=O)O | 0.259 | 0.636
Cc1ccc2[nH]c(C)c(CCNS(=O)(=O)c3ccc(C)c(C)c3C)c2c1 | 0.219 | 0.596
COc1ccc(N2C(=O)CC(NCc3ccco3)C2=O)cc1 (stereo unspecified) | 0.252 | 0.614
Cn1nnnc1SCCNS(=O)(=O)c1ccccc1 | 0.247 | 0.613
Cc1nc(SCC(=O)Nc2nc(-c3ccc(Br)cc3)cs2)n[nH]1 | 0.247 | 0.607
Clc1nc2ccc(Br)cc2cc1C1CC(c2ccc(Br)cc2)=NN1 (stereo unspecified) | 0.26 | 0.615
O=C(O)c1ccc(Br)c(NC(=O)C2C3C=CC(C3)C2C(=O)O)c1 (stereo unspecified) | 0.248 | 0.604
COc1cc2c(cc1OC)C(=NCCCCCC(=O)O)NC(C)(C)C2 | 0.246 | 0.62
C=CCn1c(C(CC)CC(C)(C)O)n[nH]c1=S (stereo unspecified) | 0.253 | 0.63
CNC(=S)NNC(=O)c1cccs1 | 0.254 | 0.645
C/C(=N\N=C1/NC(=O)CC(C(=O)O)S1)c1cccs1 (stereo unspecified) | 0.25 | 0.609
COc1cccc(NC(=O)CSc2ccccc2)c1 | 0.268 | 0.623
CC(C)(C)C(=O)Nc1ccc(-c2nc3ccc(Cc4ccc5nc(-c6ccc(NC(=O)C(C)(C)C)cc6)oc(=O)c5c4)cc3c(=O)o2)cc1 | 0.25 | 0.629
CC(C)[n+]1c2ccc(C(C)(C)C)cc2cc2cc(C(C)(C)C)ccc21 | 0.245 | 0.602
Cc1noc(C)c1C(=O)N1CCN(c2ncc(C(F)(F)F)cc2Cl)CC1 | 0.25 | 0.605
CC(=O)Nc1nonc1-c1nc2ccccc2n1Cc1ccccc1F | 0.248 | 0.615
O=C(C(c1ccccc1)c1ccccc1)N1CCc2ccccc21 | 0.244 | 0.6
N#CCN1CCN(CCC(=O)Nc2ccc(F)cc2)CC1 | 0.24 | 0.619
Cc1ccc2oc(-c3ccc(C)c(NC(=O)c4ccc(C)c([N+](=O)[O-])c4)c3)nc2c1 | 0.255 | 0.628
CCCC(CC(=O)O)(C(=O)O)c1ccccc1 (stereo unspecified) | 0.259 | 0.616
N#CC(NCc1ccccc1)c1ccc(Cl)c(Cl)c1 (stereo unspecified) | 0.25 | 0.626
C/C(CC(=O)Nc1ccccc1C)=N\NC(=O)COc1ccc(Br)cc1C | 0.239 | 0.63
O=C1c2cccc3cccc(c23)C(=O)N1CCO | 0.242 | 0.616
CC(C)CC(=O)NCc1ccc2c(c1)OCO2 | 0.239 | 0.61

Record cards, from the list above. Values in the order: plate-normalized OD600 growth (temperature: 15°C, 48 h) | plate-normalized OD600 growth (temperature: 37°C, 24 h)
NC(N)=NC(N)=Nc1ccc2c(c1)OCCO2 reads 0.252 | 0.624
O=C1OC2COC(=O)C2C=C1NC(=O)c1ccc(Cl)cc1 (stereo unspecified) reads 0.25 | 0.613
FC(F)(F)c1ccc(Cl)c(NC(=S)NN=C2CCCCCC2)c1 reads 0.245 | 0.624
CNC(=S)NNC(=O)c1cccs1 reads 0.254 | 0.645

Remaining list, next part:

Structure (SMILES) | plate-normalized OD600 growth (temperature: 15°C, 48 h) | plate-normalized OD600 growth (temperature: 37°C, 24 h)
N/C(=N/O)c1cnccc1C(F)(F)F | 0.279 | 0.653
COC(=O)Nc1ccc(SCC(=O)c2ccc(Cl)cc2)cc1 | 0.224 | 0.655
CC(C)(C)C1=NN(c2ccccc2)C(=O)C1 | 0.229 | 0.62
Cc1ccccc1-c1c(C#N)c(N)nc(C(C#N)c2nc3ccccc3s2)c1C#N (stereo unspecified) | 0.23 | 0.647
Cc1nc2ccccn2c1C(=O)NN=C1CCCCCC1 | 0.248 | 0.622
O=C1c2cccc3c(SCCO)ccc(c23)C(=O)N1CCc1ccccn1 | 0.265 | 0.634
CCc1c(-c2ccccc2)[nH]c2nc3c(c(=O)n(C)c(=O)n3C)n12 | 0.236 | 0.612
COc1ccccc1-n1c(Cc2ccc(Cl)cc2)n[nH]c1=S | 0.248 | 0.615
COc1ccc(C(=O)[C@@H]2[C@@H](c3cccnc3)C(C#N)(C#N)[C@H]3C=Cc4ccccc4N23)cc1 | 0.259 | 0.632
CCC(CC)=NNC(=O)CNC(=O)CNS(=O)(=O)c1ccc(C)cc1 | 0.236 | 0.593
Cc1cc(/C=N/NC(N)=S)c(C)n1-c1ccccc1 | 0.232 | 0.631
NS(=O)(=O)c1ccc(-n2ncc3ccccc3c2=O)cc1 | 0.214 | 0.646
COc1nc(N)nc(SC)n1 | 0.303 | 0.665
CC1CCN(C2=NC(=O)/C(=C\c3ccc(Cl)cc3)S2)CC1 | 0.233 | 0.613
COc1cccc(C2C3=C(CC(C)(C)CC3=O)OC(N)=C2[N+](=O)[O-])c1 (stereo unspecified) | 0.246 | 0.619
CC1=C(Br)C(=O)C(C)(Br)C(Br)C1=NS(=O)(=O)c1ccccc1 (stereo unspecified) | 0.24 | 0.623
COc1ccc(-n2c(-c3ccccc3)nnc2-c2ccc(Br)cc2)cc1 | 0.258 | 0.645
O=C(NCC(c1ccccc1)c1ccccc1)c1ccc(C#CC2(O)CCCCC2)cc1 | 0.244 | 0.623
CC(C)(C)OC(=O)C(C)(C)S(=O)(=O)c1ccc(Cl)cc1 | 0.279 | 0.618
Oc1c(Cl)cc(Cl)cc1C=Nc1ccc2c(c1)COCO2 | 0.238 | 0.601
CS/C(N)=N\N=C/c1c(F)cccc1Cl | 0.258 | 0.652
Cc1onc(-c2ccc(Cl)cc2)c1-c1ccnn1C(=O)NC(C)C | 0.256 | 0.633
COc1cccc(C=NC2CCN(Cc3ccccc3)CC2)c1OC | 0.226 | 0.619
COC(=O)c1cccc(Oc2nc(N3CCOCC3)nc(N3CCOCC3)n2)c1 | 0.251 | 0.609
CCOc1cc(/C=N/n2cnc3sc4c(c3c2=O)CCCC4)cc(Br)c1OCc1ccc(Cl)cc1 | 0.245 | 0.619

Structure (SMILES) | plate-normalized OD600 growth (temperature: 15°C, 48 h) | plate-normalized OD600 growth (temperature: 37°C, 24 h)
Cc1ccc(C(=O)c2sc3nc(-c4cccs4)cc(C(F)(F)F)c3c2N)cc1 | 0.239 | 0.623
O=C1C2C3c4ccccc4C(c4ccccc43)C2C(=O)N1c1ccc(F)cc1 (stereo unspecified) | 0.248 | 0.643
CCN1C(=O)CC(C(=O)Nc2ccc(F)cc2)SC1=Nc1cccc(OC)c1 (stereo unspecified) | 0.237 | 0.62
CC(C)=NN(C(=O)c1ccccc1)C(C)(C)C | 0.249 | 0.663
NCCCCCCCNC(=O)c1cc([N+](=O)[O-])ccc1C(=O)O | 0.239 | 0.58
CCC(Cc1ccccc1)NC(=O)C(CC)c1ccc(CC(C)C)cc1 (stereo unspecified) | 0.231 | 0.629
COc1cc2c(cc1OC)CC(=O)OC2 | 0.244 | 0.606
O=C(OC1CCCCC1)c1ccc(NC(=O)c2ccco2)cc1 | 0.262 | 0.611
Nc1nc(=Nc2ccccc2)n2c(n1)sc1ccccc12 | 0.243 | 0.61
Cc1ccc(C=Nc2ccc(-c3ccc(N=Cc4ccc(C)o4)c(C)c3)cc2C)o1 | 0.224 | 0.622
O=C(NCCSC1CCCCC1)c1ccco1 | 0.221 | 0.633
CCOC(=O)CNc1cccc(C(F)(F)F)c1 | 0.227 | 0.612
CCOc1ccc(NC(=O)CC2S/C(=N\N=C\c3ccc(C)s3)NC2=O)cc1 (stereo unspecified) | 0.222 | 0.624
CC(C)(C)OC(=O)NCc1n[nH]c(=S)n1-c1ccccc1 | 0.242 | 0.609
CSc1nsc(N/N=C(/C)c2ccc(O)c(O)c2)c1C#N | 0.233 | 0.621
CCCS/C(N)=N\N=C\c1cc(C)ccc1O | 0.258 | 0.613
COC(=O)c1cc(OC)c(OC)cc1NC(=O)C1CC1 | 0.254 | 0.611
O=c1[nH]cnc2ccc(NC(=S)NCc3ccco3)cc12 | 0.243 | 0.614
COC(=O)C1(C(F)(F)F)N=C2C=CC(Br)=CN2C(c2ccccc2)=N1 (stereo unspecified) | 0.249 | 0.598
COC(=O)CCC(=O)Nc1cc(Cl)ccc1Cl | 0.245 | 0.604
COC(=O)c1cc(OC)c(OC)cc1NC(=O)Nc1cc(Cl)cc(Cl)c1 | 0.25 | 0.597
N#CCS(=O)(=O)c1cccs1 | 0.217 | 0.626
COC(=O)c1c(OC)ccc(N=CNO)c1OC | 0.247 | 0.621
